Data on one substance can be found in paper PMC6021487.

Changes are numbered by the printed parent chain. These are yes or no findings as the source states them, for the method shown. Binding seen in cells or lysates may run through a third protein. A result given as binding can be weak or reduced; the word gives no strength. For some assays here: Sequences can lack the tags named with a protein.

The target in one experiment is T1, PTRF Y158F mutant (UniProt O54724).
T1 sequence: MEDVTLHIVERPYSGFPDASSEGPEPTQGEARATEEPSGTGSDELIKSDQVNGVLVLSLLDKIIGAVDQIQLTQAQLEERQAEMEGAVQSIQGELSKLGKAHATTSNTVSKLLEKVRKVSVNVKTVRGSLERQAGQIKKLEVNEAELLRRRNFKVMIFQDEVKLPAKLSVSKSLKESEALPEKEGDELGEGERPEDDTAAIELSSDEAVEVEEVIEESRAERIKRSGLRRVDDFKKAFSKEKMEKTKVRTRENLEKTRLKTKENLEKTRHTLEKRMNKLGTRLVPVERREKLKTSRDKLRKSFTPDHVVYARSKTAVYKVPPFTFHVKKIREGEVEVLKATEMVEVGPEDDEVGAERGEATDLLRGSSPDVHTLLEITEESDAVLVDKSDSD
The experiment can be described thus: co-IP; transfected 16HBE cells, 48 h after transfection; lysed in RIPA buffer (50 mM Tris-HCl pH 7.5, 135 mM NaCl, 1% NP-40, 0.5% sodium DOC, 1 mM EDTA, 10% glycerol); whole cell lysates immunoprecipitated with anti-HA or anti-Flag antibody on protein A/G-agarose beads at 4°C; immunoblot.

Experiment [1] concerns the target T2, HA-PTRF (polymerase I and transcript release factor), wild type (UniProt O54724).
T2 sequence: T1 sequence with F158Y
The experiment is described as above.

For Flag-IL-33, the binding result (with PTRF Y158F mutant; in experiment [1]) was “binds” in each case.
